These are yes or no findings as the source states them, for the method shown. In cells and extracts the contact can be indirect.
Columns and labels:
[1] = target: HA-tagged B56β1 (PP2A regulatory subunit B56β1) (UniProt Q15173); assay: co-IP; HA-B56 immunoprecipitated with anti-HA antibodies and protein G Sepharose from lysates of permanently B56-transfected Calu1 cells (50 mM Tris-HCl pH 7.4, 150 mM NaCl, 1% NP-40, 0.25% sodium deoxycholate); co-precipitated endogenous proteins detected by western blotting; 2x10^6 cells (6x10^6 cells for B56β1 with C subunit); in Figure 7A cells stimulated with EGF and loaded on collagen, 0 to 60 min
[2] = target: HA-tagged B56α1 (PP2A regulatory subunit B56α1) (UniProt Q15172); assay: as above

Chains of the proteins cited; added tags and fusions are not shown.
UniProt Q15173: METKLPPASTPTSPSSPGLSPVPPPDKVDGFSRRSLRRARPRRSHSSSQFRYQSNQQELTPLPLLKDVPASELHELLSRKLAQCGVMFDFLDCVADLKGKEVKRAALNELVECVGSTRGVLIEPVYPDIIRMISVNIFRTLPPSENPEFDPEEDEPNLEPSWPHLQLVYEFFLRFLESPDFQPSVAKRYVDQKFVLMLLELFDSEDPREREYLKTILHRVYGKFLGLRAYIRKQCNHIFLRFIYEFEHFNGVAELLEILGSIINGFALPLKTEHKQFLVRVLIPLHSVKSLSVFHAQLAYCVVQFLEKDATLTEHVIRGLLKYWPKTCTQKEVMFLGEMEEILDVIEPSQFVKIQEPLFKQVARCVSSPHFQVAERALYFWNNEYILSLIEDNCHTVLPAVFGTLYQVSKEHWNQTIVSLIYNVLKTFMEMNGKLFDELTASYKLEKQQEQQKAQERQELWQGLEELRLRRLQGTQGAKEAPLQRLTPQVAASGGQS
UniProt Q15172: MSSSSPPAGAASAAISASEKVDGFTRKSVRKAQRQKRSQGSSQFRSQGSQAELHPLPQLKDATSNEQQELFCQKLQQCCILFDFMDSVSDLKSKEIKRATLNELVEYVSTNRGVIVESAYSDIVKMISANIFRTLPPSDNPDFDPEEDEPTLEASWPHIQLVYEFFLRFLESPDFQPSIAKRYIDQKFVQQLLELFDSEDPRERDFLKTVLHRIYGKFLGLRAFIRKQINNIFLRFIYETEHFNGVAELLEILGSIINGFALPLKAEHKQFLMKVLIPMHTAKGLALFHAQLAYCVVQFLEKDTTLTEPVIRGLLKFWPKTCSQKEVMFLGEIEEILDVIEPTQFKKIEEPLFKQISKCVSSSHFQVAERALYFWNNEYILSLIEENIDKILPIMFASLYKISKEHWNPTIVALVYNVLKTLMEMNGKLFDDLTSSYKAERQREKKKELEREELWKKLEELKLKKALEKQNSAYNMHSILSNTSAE

binding [1]: no binding | binding [2]: no binding
B1: Immediate early response protein 3, IER3 (protein, UniProt P46695 1-156)
chain: MCHSRSCHPTMTILQAPTPAPSTIPGPRRGSGPEIFTFDPLPEPAAAPAGRPSASRGHRKRSRRVLYPRVVRRQLPVEEPNPAKRLLFLLLTIVFCQILMAEEGVPAPLPPEDAPNAASLAPTPVSAVLEPFNLTSEPSDYALDLSTFLQQHPAAF

Reference: PMC3660565
